Source: patent US6957150
Results are given in words; binding and its absence hold for the method and conditions named. Some results given as binding are weak or reduced against the parent protein; the word gives no strength.

Columns and labels:
[1] = biological target: Acyl Carrier Protein Synthase (ACPS) from B. subtilis, mutant with proline instead of glutamine at residue 96 (B. subtilis) (UniProt P96618); assay: 15% non-reducing denaturing gels before and after centrifugation
[2] = biological target: Acyl Carrier Protein Synthase (ACPS) from B. subtilis, mutant with proline instead of glutamine at residue 96 (B. subtilis) (UniProt P96618); assay: sedimentation equilibrium analytical ultracentrifugation, pH 6.4, 25 deg C
[3] = biological target: Acyl Carrier Protein Synthase (ACPS) from B. subtilis, mutant with proline instead of glutamine at residue 96 (B. subtilis) (UniProt P96618); assay: X-ray crystal structure of the ACPS-CoA complex, R3 form
[4] = biological target: Acyl Carrier Protein Synthase (ACPS) from B. subtilis, mutant with proline instead of glutamine at residue 96 (B. subtilis) (UniProt P96618); assay: X-ray crystal structure, P21 form

binding [1]: binds | binding [2]: binds | binding [3]: binds | binding [4]: binds
B1: Acyl Carrier Protein Synthase (ACPS) from B. subtilis, mutant with proline instead of glutamine at residue 96 (enzyme, not shown: small tags and cut ends)
chain: MIYGIGLDITELKRIASMAGRQKRFAERILTRSELDQYYELSEKRKNEFLAGRFAAKEAFSKAFGTGIGRQLSFQDIEIRKDQNGKPYIICTKLSPAAVHVSITHTKEYAAAQVVIERLSS
